Test results from paper PMC12635394, “UBE2O-mediated ubiquitylation directs cytoplasmic CTNNA1 to promote cell-to-ECM adhesions” (EMBO Reports, 2025).
No constants are given. Whether binding was seen depends on the method and setting. In cells and extracts the contact can be indirect. These calls come from enrichment with a bait or labelling near it, and not all partners need be listed.

The chains behind the UniProt entries cited, without tags or fusion partners.
UniProt P26231: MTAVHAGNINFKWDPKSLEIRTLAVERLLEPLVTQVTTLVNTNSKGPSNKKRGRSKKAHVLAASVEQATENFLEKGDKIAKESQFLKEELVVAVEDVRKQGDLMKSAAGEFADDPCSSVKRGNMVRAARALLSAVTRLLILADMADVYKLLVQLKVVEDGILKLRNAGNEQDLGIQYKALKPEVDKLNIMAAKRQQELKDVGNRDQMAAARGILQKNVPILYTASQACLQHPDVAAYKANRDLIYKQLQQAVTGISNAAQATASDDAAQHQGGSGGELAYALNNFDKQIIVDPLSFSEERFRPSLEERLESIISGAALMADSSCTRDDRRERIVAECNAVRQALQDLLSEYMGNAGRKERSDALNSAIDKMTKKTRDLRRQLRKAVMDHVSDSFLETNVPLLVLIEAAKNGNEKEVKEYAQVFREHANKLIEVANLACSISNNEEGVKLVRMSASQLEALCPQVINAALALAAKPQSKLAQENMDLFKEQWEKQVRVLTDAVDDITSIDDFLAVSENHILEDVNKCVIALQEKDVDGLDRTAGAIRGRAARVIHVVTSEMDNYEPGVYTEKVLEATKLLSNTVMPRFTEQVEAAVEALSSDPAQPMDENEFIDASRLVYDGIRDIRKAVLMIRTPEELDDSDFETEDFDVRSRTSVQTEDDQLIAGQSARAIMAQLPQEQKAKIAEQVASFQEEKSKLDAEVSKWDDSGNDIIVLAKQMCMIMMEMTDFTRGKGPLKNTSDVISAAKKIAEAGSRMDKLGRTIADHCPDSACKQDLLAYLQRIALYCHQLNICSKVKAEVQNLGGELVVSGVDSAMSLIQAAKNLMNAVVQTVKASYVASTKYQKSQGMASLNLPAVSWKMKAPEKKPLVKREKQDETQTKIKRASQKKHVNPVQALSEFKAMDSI
UniProt Q9NS91: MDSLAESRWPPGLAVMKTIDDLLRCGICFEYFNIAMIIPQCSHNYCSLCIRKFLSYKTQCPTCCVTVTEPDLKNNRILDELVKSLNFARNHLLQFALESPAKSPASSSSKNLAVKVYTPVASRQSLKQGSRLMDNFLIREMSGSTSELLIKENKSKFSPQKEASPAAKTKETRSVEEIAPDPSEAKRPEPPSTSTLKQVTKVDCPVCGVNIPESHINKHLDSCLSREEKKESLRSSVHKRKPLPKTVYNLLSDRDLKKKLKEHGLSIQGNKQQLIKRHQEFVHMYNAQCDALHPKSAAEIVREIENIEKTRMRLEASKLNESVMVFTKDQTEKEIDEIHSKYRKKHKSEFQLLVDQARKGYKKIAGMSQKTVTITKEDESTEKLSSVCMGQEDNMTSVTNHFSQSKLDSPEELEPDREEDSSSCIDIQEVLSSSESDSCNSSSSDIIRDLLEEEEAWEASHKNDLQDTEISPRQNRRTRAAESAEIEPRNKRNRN
UniProt P35222: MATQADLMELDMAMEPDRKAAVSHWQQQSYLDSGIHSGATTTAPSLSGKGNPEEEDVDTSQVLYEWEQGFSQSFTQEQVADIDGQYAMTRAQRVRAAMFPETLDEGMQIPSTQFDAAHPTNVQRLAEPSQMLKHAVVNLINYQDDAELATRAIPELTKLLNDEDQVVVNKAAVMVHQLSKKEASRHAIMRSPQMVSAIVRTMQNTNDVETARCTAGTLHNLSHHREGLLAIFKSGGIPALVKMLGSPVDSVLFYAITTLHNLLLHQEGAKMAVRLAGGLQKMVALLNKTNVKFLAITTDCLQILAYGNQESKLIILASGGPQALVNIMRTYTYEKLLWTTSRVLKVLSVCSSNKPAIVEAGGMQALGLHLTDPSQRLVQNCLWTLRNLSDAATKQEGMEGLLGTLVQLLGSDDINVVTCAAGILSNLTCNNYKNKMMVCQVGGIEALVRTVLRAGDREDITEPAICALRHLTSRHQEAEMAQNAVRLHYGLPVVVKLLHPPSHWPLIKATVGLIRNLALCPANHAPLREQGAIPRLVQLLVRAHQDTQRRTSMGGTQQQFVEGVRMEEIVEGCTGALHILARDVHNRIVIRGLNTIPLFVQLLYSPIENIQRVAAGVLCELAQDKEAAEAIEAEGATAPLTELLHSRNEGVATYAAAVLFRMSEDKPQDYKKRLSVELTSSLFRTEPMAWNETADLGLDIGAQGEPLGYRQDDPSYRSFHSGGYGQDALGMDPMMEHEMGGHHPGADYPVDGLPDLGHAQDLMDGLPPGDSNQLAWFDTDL
UniProt Q02248: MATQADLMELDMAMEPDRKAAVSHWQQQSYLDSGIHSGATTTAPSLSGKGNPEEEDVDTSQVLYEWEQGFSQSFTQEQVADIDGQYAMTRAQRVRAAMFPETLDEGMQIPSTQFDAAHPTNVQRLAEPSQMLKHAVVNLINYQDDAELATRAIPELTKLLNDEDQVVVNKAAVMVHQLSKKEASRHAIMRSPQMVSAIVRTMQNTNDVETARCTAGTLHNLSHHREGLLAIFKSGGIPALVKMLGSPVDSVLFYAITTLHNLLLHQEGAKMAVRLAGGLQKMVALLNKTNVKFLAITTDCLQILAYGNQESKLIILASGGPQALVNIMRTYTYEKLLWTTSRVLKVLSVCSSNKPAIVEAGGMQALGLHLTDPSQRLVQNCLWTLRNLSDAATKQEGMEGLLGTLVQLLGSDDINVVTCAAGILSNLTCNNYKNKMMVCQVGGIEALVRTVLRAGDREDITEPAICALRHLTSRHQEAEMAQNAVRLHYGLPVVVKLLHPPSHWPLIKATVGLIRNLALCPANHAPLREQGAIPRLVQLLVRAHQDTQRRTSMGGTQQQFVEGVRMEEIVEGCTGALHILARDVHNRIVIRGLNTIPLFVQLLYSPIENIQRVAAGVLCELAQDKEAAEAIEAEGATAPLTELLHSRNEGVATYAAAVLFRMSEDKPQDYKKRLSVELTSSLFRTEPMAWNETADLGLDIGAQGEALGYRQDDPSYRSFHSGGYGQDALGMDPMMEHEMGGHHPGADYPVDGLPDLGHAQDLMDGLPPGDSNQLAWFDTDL
UniProt P35221: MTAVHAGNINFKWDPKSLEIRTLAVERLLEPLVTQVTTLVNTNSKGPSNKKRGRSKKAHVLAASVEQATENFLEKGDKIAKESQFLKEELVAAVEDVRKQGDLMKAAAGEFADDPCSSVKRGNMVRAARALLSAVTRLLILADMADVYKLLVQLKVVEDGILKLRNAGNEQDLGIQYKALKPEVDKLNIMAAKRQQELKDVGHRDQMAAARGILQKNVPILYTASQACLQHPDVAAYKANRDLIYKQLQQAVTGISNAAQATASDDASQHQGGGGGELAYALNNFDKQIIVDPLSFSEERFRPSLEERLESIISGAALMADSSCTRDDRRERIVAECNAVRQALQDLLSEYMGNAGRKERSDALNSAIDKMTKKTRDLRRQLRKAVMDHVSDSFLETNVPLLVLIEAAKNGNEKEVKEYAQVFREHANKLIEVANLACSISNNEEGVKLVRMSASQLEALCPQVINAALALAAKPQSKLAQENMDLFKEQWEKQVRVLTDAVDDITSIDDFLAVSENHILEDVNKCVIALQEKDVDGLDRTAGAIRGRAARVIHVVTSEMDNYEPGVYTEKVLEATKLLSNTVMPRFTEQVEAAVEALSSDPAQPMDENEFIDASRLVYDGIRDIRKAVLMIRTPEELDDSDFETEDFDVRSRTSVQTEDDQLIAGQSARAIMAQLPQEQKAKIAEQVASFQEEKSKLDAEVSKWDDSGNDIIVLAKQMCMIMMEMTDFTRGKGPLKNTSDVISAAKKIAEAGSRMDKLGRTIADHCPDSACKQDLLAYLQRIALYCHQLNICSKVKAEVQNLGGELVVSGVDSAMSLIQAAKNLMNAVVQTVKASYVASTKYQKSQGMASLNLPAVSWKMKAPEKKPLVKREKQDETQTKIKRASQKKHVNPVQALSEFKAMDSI

B1: endogenous USP36 of HEK293T cells (enzyme, UniProt Q9P275 1-1123)
chain: MPIVDKLKEALKPGRKDSADDGELGKLLASSAKKVLLQKIEFEPASKSFSYQLEALKSKYVLLNPKTEGASRHKSGDDPPARRQGSEHTYESCGDGVPAPQKVLFPTERLSLRWERVFRVGAGLHNLGNTCFLNATIQCLTYTPPLANYLLSKEHARSCHQGSFCMLCVMQNHIVQAFANSGNAIKPVSFIRDLKKIARHFRFGNQEDAHEFLRYTIDAMQKACLNGCAKLDRQTQATTLVHQIFGGYLRSRVKCSVCKSVSDTYDPYLDVALEIRQAANIVRALELFVKADVLSGENAYMCAKCKKKVPASKRFTIHRTSNVLTLSLKRFANFSGGKITKDVGYPEFLNIRPYMSQNNGDPVMYGLYAVLVHSGYSCHAGHYYCYVKASNGQWYQMNDSLVHSSNVKVVLNQQAYVLFYLRIPGSKKSPEGLISRTGSSSLPGRPSVIPDHSKKNIGNGIISSPLTGKRQDSGTMKKPHTTEEIGVPISRNGSTLGLKSQNGCIPPKLPSGSPSPKLSQTPTHMPTILDDPGKKVKKPAPPQHFSPRTAQGLPGTSNSNSSRSGSQRQGSWDSRDVVLSTSPKLLATATANGHGLKGNDESAGLDRRGSSSSSPEHSASSDSTKAPQTPRSGAAHLCDSQETNCSTAGHSKTPPSGADSKTVKLKSPVLSNTTTEPASTMSPPPAKKLALSAKKASTLWRATGNDLRPPPPSPSSDLTHPMKTSHPVVASTWPVHRARAVSPAPQSSSRLQPPFSPHPTLLSSTPKPPGTSEPRSCSSISTALPQVNEDLVSLPHQLPEASEPPQSPSEKRKKTFVGEPQRLGSETRLPQHIREATAAPHGKRKRKKKKRPEDTAASALQEGQTQRQPGSPMYRREGQAQLPAVRRQEDGTQPQVNGQQVGCVTDGHHASSRKRRRKGAEGLGEEGGLHQDPLRHSCSPMGDGDPEAMEESPRKKKKKKRKQETQRAVEEDGHLKCPRSAKPQDAVVPESSSCAPSANGWCPGDRMGLSQAPPVSWNGERESDVVQELLKYSSDKAYGRKVLTWDGKMSAVSQDAIEDSRQARTETVVDDWDEEFDRGKEKKIKKFKREKRRNFNAFQKLQTRRNFWSVTHPAKAASLSYRR
B2: endogenous human UBE2O (enzyme, UniProt Q9C0C9 1-1292)
chain: MADPAAPTPAAPAPAQAPAPAPEAVPAPAAAPVPAPAPASDSASGPSSDSGPEAGSQRLLFSHDLVSGRYRGSVHFGLVRLIHGEDSDSEGEEEGRGSSGCSEAGGAGHEEGRASPLRRGYVRVQWYPEGVKQHVKETKLKLEDRSVVPRDVVRHMRSTDSQCGTVIDVNIDCAVKLIGTNCIIYPVNSKDLQHIWPFMYGDYIAYDCWLGKVYDLKNQIILKLSNGARCSMNTEDGAKLYDVCPHVSDSGLFFDDSYGFYPGQVLIGPAKIFSSVQWLSGVKPVLSTKSKFRVVVEEVQVVELKVTWITKSFCPGGTDSVSPPPSVITQENLGRVKRLGCFDHAQRQLGERCLYVFPAKVEPAKIAWECPEKNCAQGEGSMAKKVKRLLKKQVVRIMSCSPDTQCSRDHSMEDPDKKGESKTKSEAESASPEETPDGSASPVEMQDEGAEEPHEAGEQLPPFLLKEGRDDRLHSAEQDADDEAADDTDDTSSVTSSASSTTSSQSGSGTSRKKSIPLSIKNLKRKHKRKKNKITRDFKPGDRVAVEVVTTMTSADVMWQDGSVECNIRSNDLFPVHHLDNNEFCPGDFVVDKRVQSCPDPAVYGVVQSGDHIGRTCMVKWFKLRPSGDDVELIGEEEDVSVYDIADHPDFRFRTTDIVIRIGNTEDGAPHKEDEPSVGQVARVDVSSKVEVVWADNSKTIILPQHLYNIESEIEESDYDSVEGSTSGASSDEWEDDSDSWETDNGLVEDEHPKIEEPPIPPLEQPVAPEDKGVVISEEAATAAVQGAVAMAAPMAGLMEKAGKDGPPKSFRELKEAIKILESLKNMTVEQLLTGSPTSPTVEPEKPTREKKFLDDIKKLQENLKKTLDNVAIVEEEKMEAVPDVERKEDKPEGQSPVKAEWPSETPVLCQQCGGKPGVTFTSAKGEVFSVLEFAPSNHSFKKIEFQPPEAKKFFSTVRKEMALLATSLPEGIMVKTFEDRMDLFSALIKGPTRTPYEDGLYLFDIQLPNIYPAVPPHFCYLSQCSGRLNPNLYDNGKVCVSLLGTWIGKGTERWTSKSSLLQVLISIQGLILVNEPYYNEAGFDSDRGLQEGYENSRCYNEMALIRVVQSMTQLVRRPPEVFEQEIRQHFSTGGWRLVNRIESWLETHALLEKAQALPNGVPKASSSPEPPAVAELSDSGQQEPEDGGPAPGEASQGSDSEGGAQGLASASRDHTDQTSETAPDASVPPSVKPKKRRKSYRSFLPEKSGYPDIGFPLFPLSKGFIKSIRGVLTQFRAALLEAGMPECTEDK
B3: CTNNA2 of the cell lysate used for the ubiquitylated-CTNNA1 interactome (protein, UniProt P26232 1-953)
chain: MTSATSPIILKWDPKSLEIRTLTVERLLEPLVTQVTTLVNTSNKGPSGKKKGRSKKAHVLAASVEQATQNFLEKGEQIAKESQDLKEELVAAVEDVRKQGETMRIASSEFADDPCSSVKRGTMVRAARALLSAVTRLLILADMADVMRLLSHLKIVEEALEAVKNATNEQDLANRFKEFGKEMVKLNYVAARRQQELKDPHCRDEMAAARGALKKNATMLYTASQAFLRHPDVAATRANRDYVFKQVQEAIAGISNAAQATSPTDEAKGHTGIGELAAALNEFDNKIILDPMTFSEARFRPSLEERLESIISGAALMADSSCTRDDRRERIVAECNAVRQALQDLLSEYMNNTGRKEKGDPLNIAIDKMTKKTRDLRRQLRKAVMDHISDSFLETNVPLLVLIEAAKSGNEKEVKEYAQVFREHANKLVEVANLACSISNNEEGVKLVRMAATQIDSLCPQVINAALTLAARPQSKVAQDNMDVFKDQWEKQVRVLTEAVDDITSVDDFLSVSENHILEDVNKCVIALQEGDVDTLDRTAGAIRGRAARVIHIINAEMENYEAGVYTEKVLEATKLLSETVMPRFAEQVEVAIEALSANVPQPFEENEFIDASRLVYDGVRDIRKAVLMIRTPEELEDDSDFEQEDYDVRSRTSVQTEDDQLIAGQSARAIMAQLPQEEKAKIAEQVEIFHQEKSKLDAEVAKWDDSGNDIIVLAKQMCMIMMEMTDFTRGKGPLKNTSDVINAAKKIAEAGSRMDKLARAVADQCPDSACKQDLLAYLQRIALYCHQLNICSKVKAEVQNLGGELIVSGTGVQSTFTTFYEVDCDVIDGGRASQLSTHLPTCAEGAPIGSGSSDSSMLDSATSLIQAAKNLMNAVVLTVKASYVASTKYQKVYGTAAVNSPVVSWKMKAPEKKPLVKREKPEEFQTRVRRGSQKKHISPVQALSEFKAMDSF

target: Flag-tagged CTNNA1 (full-length mouse Ctnna1) (mouse) (UniProt P26231); assay: affinity purification with mass spectrometry; Flag-CTNNA1 transiently overexpressed in HEK293T, immunoprecipitation with Flag beads, on-bead trypsin digestion, label-free quantification (fold change >2 and P < 0.05)

Molecule | binding
endogenous BIRC6 of HEK293T cells (from UniProt Q9NR09 1-4857) (enzyme) | binds
endogenous RAD18 of HEK293T cells (from UniProt Q9NS91 1-495) (enzyme) | binds
endogenous β-catenin (CTNNB1) of HEK293T cells (from UniProt P35222 1-781) | binds
B1 | binds
B2 | binds

target: endogenous CTNNA1 of mouse embryonic fibroblasts (mouse (endogenous in MEFs)) (UniProt P26231); assay: affinity purification with mass spectrometry; endogenous CTNNA1 precipitated with rabbit anti-CTNNA1 (or rabbit IgG) from lysates of shLuciferase or shUbe2o MEFs, on-bead digestion, label-free quantification

Molecule | binding
endogenous β-catenin of mouse embryonic fibroblasts (from UniProt Q02248 1-781) | binds

target: CTNNA1-V5 (purified mouse CTNNA1 with C-terminal V5 tag) (mouse) (UniProt P26231); assay: affinity purification with mass spectrometry; ctrl, CTNNA1-V5 (no ATP) or ubiquitylated CTNNA1-V5 baits on V5-Trap magnetic agarose, incubated with cell lysate overnight at 4 °C, on-bead digestion, label-free quantification; only the target purified

Molecule | binding
CTNNA1 of the cell lysate used for the ubiquitylated-CTNNA1 interactome (from UniProt P35221 1-906) | binds
β-catenin of the cell lysate used for the ubiquitylated-CTNNA1 interactome (from UniProt P35222 1-781) | binds
B3 | binds
